This note sets out measurements from article PMC4679777.

Amino acid sequences for entries named in this document (tags omitted).
UniProt P34158: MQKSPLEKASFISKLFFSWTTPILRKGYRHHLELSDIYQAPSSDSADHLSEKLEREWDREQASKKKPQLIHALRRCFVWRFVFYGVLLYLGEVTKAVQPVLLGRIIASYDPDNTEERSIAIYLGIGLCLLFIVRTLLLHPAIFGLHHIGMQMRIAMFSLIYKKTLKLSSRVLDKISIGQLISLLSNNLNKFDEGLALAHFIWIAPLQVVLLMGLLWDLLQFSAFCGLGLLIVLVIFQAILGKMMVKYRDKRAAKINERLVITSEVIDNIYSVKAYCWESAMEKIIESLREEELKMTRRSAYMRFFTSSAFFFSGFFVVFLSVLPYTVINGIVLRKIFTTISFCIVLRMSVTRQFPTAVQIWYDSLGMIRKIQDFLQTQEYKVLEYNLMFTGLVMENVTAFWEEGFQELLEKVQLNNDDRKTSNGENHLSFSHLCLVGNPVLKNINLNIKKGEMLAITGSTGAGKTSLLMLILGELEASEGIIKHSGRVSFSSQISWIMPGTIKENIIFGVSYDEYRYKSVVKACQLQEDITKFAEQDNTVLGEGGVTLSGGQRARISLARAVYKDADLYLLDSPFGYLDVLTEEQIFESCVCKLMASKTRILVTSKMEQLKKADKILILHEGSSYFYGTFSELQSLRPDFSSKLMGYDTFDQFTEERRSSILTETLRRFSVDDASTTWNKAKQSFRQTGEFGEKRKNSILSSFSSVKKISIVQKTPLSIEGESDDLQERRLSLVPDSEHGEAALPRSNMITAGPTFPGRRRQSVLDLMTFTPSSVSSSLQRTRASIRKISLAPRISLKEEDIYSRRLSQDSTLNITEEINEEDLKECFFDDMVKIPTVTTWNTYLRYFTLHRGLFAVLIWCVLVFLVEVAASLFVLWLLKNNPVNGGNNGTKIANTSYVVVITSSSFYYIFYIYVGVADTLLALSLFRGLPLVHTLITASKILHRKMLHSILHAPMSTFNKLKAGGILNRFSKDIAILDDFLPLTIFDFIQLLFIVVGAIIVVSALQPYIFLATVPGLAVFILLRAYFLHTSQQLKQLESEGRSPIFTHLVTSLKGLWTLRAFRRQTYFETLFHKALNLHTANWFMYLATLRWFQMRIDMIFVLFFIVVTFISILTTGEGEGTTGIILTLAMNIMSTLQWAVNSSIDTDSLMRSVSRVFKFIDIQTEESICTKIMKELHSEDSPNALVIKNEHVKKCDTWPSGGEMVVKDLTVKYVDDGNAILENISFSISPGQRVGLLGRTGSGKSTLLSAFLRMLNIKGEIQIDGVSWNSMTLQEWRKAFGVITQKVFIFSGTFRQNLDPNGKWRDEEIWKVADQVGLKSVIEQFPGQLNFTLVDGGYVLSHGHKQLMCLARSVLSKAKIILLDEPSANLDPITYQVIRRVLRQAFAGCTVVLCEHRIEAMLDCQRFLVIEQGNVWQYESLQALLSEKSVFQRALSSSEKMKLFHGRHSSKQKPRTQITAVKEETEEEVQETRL

The target in the test is cystic fibrosis transmembrane conductance regulator (Cftr) (rat (endogenous in maturation-stage enamel organ)) (UniProt P34158). The test can be described thus: co-IP; maturation-stage enamel organ protein (50-100 ug) lysed in 1xTBS with 1% Triton-100, pre-cleared, 1 ug anti-Cftr antibody at 4°C, A/G agarose beads overnight, washed with 50 mM Tris, 0.1% NP-40, pH 7.4; immunoblot for Slc26a1, Slc26a6, Slc26a7; negative control without the anti-Cftr antibody. In general terms: In western blotting, separated proteins are transferred to a membrane and probed.

These are yes or no findings as the source states them, for the method shown. In cells and extracts the contact can be indirect. Some entries that bind do so weakly or less than the wild type.

B1: Slc26a1 (protein, UniProt P45380 1-703)
chain: MDASPEPPQKGGTLVLVRRQPPVSQGLLETLKARLKKSCTCSMPCAQALVQGLFPVIRWLPQYRLKEYLAGDVMSGLVIGIILVPQAIAYSLLAGLQPIYSLYTSFFANLIYFLMGTSRHVNVGIFSLLCLMVGQVVDRELQLAGFDPSQDSLGPGNNDSTLNNTATLTVGLQDCGRDCHAIRIATALTLMAGLYQVLMGILRLGFVSTYLSQPLLDGFAMGASVTILTSQAKHLLGVRIPRHQGLGMVIHTWLSLLQNVGQANLCDVVTSAVCLAVLLTAKELSDRYRHYLKVPVPTELLVIVVATIASHFGQLHTRFGSSVAGNIPTGFVAPQIPDPKIMWSVALDAMSLALVGSAFSISLAEMFARSHGYSVSANQELLAVGCCNVLPAFFHCFATSAALSKTLVKIATGCQTQLSSVVSAAVVLLVLLVLAPLFHDLQRCVLACIIVVSLRGALRKVKDLPQLWRLSPADALVWVATAATCVLVSIEAGLLAGVFFSLLSLAGRTQRPRAALLARIGDSTFYEDAAEFEGLLPPPEVRVFRFTGPLYYANKDFFLRSLYSLTGLDAGYSATRKDRGTEVGVSNRSLVDRKDLGSVSSGDGLVVPLAFGFHTVVIDCAPLLFLDVAGMATLKDLRKNYRALDITLLLACCSPSVRDTLRKGGFLGEDQGTAEELLFPSVHSAVETACARREELMAADSAL
For B1, the binding result is “binds”.
